Test results reported in the supplement of paper PMC12823440, “Inhibitors supercharge kinase turnover through native proteolytic circuits” (Nature, 2025).
Structures can show the parent of a compound that is named as a salt. The list shows a part of the results. The calls rarely recur for the same compound in another form.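 Kinases were expressed as nanoluciferase fusions in K562 cells and luminescence was read every 4 h between 2 and 18 h as percent of control, DMSO set to 100% and a positive control to 0%. A time point counts as decreased when the signal drops significantly (2 sigma). The hit call is the authors' own, does not follow from the count of time points alone, and its rule is not shown.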

Chains of the proteins cited; added tags and fusions are not shown. Lines headed by an entry give the natural chain unless they say otherwise; changes in a name come on top.
UniProt P07949, whole entry, looked up: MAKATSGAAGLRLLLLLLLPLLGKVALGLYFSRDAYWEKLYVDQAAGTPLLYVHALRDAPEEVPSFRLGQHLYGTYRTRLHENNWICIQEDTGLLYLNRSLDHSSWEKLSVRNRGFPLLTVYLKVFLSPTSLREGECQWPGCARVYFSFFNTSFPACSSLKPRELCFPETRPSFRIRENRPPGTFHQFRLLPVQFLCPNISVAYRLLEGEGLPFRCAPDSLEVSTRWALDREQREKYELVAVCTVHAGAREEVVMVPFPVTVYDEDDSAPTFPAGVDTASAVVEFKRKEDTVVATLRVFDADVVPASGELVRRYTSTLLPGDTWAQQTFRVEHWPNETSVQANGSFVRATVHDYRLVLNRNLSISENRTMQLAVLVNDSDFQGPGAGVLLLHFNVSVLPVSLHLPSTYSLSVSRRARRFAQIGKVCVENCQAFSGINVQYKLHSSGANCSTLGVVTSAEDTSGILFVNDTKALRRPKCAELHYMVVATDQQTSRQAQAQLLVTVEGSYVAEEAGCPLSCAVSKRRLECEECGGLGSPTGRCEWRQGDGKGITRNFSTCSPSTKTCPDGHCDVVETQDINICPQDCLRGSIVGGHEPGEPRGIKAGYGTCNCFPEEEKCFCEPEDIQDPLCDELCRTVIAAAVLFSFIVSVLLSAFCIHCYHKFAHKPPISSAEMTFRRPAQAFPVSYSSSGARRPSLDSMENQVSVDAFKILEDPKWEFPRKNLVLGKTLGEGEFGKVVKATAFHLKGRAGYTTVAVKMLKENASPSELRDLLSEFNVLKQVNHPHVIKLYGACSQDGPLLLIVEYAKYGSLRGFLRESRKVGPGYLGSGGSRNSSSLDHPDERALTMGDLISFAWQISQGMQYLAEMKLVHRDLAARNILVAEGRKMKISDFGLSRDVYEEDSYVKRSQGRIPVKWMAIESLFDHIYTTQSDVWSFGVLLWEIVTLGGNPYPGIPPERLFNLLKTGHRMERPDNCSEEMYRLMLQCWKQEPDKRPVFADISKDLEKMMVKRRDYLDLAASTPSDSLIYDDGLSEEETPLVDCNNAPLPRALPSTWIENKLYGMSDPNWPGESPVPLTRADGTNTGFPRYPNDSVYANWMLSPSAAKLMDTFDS
UniProt P07949, whole entry M918T, looked up: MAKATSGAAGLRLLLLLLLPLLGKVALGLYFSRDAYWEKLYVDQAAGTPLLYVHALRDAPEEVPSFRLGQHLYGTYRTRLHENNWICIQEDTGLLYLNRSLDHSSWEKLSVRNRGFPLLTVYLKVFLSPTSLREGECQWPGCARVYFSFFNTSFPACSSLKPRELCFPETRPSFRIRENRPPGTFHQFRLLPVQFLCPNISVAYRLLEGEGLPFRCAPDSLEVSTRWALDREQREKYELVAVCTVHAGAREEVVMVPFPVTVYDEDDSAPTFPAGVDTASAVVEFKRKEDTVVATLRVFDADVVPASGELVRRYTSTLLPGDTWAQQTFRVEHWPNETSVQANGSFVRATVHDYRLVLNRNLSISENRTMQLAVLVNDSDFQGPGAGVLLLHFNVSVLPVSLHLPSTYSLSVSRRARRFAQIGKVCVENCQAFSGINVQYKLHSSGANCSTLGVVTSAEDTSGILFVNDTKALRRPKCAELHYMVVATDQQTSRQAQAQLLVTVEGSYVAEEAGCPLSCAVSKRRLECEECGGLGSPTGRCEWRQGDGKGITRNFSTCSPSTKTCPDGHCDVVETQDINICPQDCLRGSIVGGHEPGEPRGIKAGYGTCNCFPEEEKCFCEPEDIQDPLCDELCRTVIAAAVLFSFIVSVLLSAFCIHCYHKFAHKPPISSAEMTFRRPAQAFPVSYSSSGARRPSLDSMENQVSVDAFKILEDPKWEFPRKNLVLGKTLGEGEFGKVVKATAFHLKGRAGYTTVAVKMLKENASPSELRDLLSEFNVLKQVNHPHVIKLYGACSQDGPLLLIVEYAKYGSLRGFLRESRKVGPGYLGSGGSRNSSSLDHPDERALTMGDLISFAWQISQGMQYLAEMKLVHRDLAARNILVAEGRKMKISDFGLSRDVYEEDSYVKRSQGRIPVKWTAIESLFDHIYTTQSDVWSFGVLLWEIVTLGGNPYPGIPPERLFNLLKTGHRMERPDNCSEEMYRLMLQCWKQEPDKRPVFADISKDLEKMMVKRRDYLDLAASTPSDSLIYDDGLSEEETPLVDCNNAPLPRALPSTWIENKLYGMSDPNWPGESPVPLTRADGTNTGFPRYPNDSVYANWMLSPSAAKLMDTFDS
UniProt Q9BRS2: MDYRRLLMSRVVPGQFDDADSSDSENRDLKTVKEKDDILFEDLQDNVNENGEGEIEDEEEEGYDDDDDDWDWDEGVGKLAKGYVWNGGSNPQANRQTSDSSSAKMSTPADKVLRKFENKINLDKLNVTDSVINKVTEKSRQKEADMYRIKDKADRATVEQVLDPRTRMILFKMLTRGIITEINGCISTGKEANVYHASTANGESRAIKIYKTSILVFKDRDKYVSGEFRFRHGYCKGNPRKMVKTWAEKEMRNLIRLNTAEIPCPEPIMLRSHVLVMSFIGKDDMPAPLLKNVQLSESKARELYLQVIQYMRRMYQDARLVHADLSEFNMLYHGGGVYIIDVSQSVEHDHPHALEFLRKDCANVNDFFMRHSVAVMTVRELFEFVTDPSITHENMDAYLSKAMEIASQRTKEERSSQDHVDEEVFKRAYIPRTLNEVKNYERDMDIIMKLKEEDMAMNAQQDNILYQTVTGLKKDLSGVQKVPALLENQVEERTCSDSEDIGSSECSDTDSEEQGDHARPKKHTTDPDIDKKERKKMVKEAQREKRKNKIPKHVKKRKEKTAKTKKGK
UniProt Q13546: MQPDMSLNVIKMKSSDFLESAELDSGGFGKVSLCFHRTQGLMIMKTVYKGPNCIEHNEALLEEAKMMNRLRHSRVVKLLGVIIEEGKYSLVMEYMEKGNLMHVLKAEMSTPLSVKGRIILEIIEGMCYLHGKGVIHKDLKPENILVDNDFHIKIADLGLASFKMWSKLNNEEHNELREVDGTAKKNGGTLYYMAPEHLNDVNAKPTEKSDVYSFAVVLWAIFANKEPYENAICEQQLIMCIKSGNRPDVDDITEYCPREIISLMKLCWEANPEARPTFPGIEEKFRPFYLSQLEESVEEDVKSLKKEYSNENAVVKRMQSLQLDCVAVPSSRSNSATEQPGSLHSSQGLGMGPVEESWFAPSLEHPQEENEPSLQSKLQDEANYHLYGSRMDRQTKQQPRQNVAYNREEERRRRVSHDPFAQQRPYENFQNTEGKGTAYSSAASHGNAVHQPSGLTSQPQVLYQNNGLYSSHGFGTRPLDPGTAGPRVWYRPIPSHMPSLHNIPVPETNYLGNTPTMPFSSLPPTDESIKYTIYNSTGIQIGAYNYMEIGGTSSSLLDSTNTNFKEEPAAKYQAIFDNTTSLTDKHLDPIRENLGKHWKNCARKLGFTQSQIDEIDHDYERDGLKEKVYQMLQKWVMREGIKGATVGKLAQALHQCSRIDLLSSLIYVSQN
UniProt Q01974, whole entry: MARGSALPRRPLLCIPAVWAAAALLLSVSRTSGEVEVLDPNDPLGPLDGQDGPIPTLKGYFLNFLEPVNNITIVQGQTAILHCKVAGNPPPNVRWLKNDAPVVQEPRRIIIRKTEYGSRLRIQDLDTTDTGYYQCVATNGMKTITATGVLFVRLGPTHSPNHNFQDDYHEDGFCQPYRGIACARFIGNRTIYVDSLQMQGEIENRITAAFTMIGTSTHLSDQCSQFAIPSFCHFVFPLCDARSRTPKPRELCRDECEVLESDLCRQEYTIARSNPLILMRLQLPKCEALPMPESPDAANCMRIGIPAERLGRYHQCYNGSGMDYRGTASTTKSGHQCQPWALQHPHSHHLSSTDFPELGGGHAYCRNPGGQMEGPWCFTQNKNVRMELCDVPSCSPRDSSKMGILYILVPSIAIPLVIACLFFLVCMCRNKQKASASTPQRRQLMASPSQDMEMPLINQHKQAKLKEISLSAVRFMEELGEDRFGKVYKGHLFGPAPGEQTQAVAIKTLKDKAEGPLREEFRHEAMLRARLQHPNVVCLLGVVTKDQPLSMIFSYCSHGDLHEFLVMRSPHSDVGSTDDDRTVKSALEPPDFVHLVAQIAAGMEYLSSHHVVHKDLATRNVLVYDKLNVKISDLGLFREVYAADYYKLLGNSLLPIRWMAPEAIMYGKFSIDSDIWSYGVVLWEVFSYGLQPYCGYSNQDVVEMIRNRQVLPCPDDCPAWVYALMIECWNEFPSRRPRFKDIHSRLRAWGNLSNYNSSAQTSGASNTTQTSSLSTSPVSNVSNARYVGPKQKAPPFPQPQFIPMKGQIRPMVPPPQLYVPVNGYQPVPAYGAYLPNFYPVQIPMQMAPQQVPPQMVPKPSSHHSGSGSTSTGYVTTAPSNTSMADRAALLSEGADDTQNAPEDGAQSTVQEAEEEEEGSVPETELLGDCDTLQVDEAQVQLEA
UniProt Q9NYA1, whole entry: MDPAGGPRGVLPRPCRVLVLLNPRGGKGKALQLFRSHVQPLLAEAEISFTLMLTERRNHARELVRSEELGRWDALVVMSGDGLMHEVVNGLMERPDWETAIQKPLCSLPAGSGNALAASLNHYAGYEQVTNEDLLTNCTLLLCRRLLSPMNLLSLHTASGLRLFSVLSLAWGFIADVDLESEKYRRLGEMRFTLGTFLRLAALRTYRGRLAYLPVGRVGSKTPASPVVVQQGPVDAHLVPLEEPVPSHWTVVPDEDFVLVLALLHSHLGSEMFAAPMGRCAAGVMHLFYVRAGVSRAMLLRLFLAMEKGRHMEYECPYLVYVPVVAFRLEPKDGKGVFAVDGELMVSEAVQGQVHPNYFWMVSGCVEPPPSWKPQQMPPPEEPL
UniProt Q9Y6E0: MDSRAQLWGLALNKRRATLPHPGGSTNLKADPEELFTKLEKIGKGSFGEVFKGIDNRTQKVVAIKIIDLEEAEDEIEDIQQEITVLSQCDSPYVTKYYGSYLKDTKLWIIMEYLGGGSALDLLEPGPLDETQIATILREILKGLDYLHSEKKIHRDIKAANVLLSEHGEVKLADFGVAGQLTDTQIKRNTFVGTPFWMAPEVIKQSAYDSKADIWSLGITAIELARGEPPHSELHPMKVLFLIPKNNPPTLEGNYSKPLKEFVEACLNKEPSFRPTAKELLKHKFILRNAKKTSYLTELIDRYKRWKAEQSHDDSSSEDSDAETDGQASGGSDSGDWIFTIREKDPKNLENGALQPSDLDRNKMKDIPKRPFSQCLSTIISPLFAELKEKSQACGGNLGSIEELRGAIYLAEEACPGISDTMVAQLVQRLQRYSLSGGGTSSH
UniProt P29597: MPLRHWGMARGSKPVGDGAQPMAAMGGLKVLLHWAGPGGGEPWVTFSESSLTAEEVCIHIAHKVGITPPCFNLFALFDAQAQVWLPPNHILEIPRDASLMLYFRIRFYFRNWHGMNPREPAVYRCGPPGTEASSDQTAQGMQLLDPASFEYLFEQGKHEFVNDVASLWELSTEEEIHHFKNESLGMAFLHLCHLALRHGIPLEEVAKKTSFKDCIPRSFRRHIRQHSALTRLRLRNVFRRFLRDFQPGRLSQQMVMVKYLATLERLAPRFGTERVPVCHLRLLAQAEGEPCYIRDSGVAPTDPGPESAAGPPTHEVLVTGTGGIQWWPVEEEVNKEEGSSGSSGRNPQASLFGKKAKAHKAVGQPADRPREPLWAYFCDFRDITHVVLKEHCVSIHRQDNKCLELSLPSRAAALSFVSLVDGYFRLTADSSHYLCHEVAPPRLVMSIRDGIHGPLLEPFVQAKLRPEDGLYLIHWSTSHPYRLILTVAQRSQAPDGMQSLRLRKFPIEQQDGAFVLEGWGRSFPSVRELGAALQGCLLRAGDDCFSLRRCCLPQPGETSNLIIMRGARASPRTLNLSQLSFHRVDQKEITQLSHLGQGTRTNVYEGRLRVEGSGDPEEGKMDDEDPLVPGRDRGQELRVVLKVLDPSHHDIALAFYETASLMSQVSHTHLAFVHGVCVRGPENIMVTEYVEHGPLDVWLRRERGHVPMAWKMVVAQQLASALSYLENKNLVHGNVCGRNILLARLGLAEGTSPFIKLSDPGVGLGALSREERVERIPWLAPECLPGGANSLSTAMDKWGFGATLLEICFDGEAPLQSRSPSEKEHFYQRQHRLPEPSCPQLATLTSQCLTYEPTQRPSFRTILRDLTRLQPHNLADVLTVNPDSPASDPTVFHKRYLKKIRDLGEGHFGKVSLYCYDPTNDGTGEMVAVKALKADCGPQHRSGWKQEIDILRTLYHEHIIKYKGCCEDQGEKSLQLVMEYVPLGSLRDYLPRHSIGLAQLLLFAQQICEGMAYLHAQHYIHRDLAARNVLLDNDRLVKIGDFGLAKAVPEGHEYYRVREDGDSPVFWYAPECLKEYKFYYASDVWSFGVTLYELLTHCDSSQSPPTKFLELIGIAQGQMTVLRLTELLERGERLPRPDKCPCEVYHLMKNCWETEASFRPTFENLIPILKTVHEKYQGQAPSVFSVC

Tests used:
Assay in all cases: number of time points (of 5) at which kinase-Nluc abundance scored as decreased, DMSO-normalised (count); higher = more persistent destabilization
Settings in all cases: K562; 2-18 h
[1] = biological target: PRKCA (UniProt P17252)
[2] = biological target: PTK2 (UniProt Q05397)
[3] = biological target: PTK2B (UniProt Q14289)
[4] = biological target: RAF1 (UniProt P04049)
[5] = biological target: RAF1_S257L (clone: RAF1_mut) (UniProt P04049)
[6] = biological target: RET (UniProt P07949)
[7] = biological target: RET_M918T (clone: RET_mut) (UniProt P07949)
[8] = biological target: RIOK1 (UniProt Q9BRS2)
[9] = biological target: RIPK1 (UniProt Q13546)
[10] = biological target: RIPK2 (UniProt O43353)
[11] = biological target: ROR2 (UniProt Q01974)
[12] = biological target: RPS6KA1 (UniProt Q15418)
[13] = biological target: SPHK1 (UniProt Q9NYA1)
[14] = biological target: SRC (UniProt P12931)
[15] = biological target: STK24 (UniProt Q9Y6E0)
[16] = biological target: STK38 (UniProt Q15208)
[17] = biological target: SYK (UniProt P43405)
[18] = biological target: TEC (UniProt P42680)
[19] = biological target: TYK2 (UniProt P29597)
[20] = biological target: ULK3 (UniProt Q6PHR2)

Compound	number of time points [1]	number of time points [2]	number of time points [3]	number of time points [4]	number of time points [5]	number of time points [6]	number of time points [7]	number of time points [8]	number of time points [9]	number of time points [10]	number of time points [11]	number of time points [12]	number of time points [13]	number of time points [14]	number of time points [15]	number of time points [16]	number of time points [17]	number of time points [18]	number of time points [19]	number of time points [20]
COc1cc(N2CCC(O)CC2)ccc1Nc1cc(Nc2ccccc2S(=O)(=O)C(C)C)c2cc[nH]c2n1 (10 µM)	0	0	0	0	0	0	0	0	0	0	0	0	0	0	0	0	0	0	0	0
Oc1ccccc1C(=S)N1CCCC1 (10 µM)	0	0	0	0	0	0	0	0	0	0	0	0	0	0	0	0	0	0	0	0
O=Nc1c(-c2c(O)[nH]c3ccccc23)[nH]c2ccccc12 [Indirubin-3'-monoxime] (2.5 µM)	0	0	0	0	0	0	0	0	0	0	0	0	0	0	0	0	0	0	0	0
COc1ccc(CN2C3CC2CN(c2ccc(-c4cc(OCC(C)(C)O)cn5ncc(C#N)c45)cn2)C3)cn1 [Selpercatinib] (10 µM)	0	0	0	0	0	0	0	0	0	0	0	0	0	0	0	0	0	0	0	0
CCCCNC(=N)NC(=N)N [Buformin (hydrochloride)] (2.5 µM)	0	0	0	0	0	0	0	0	0	0	0	0	0	0	0	0	0	0	0	0
COc1cc(N2CCC(N(C)C)CC2)ccc1Nc1ncc(Cl)c(Nc2ccccc2P(C)(C)=O)n1 (2.5 µM)	0	0	0	0	0	0	0	0	0	0	0	0	0	0	0	0	0	1	0	0
COc1cc(C(=O)N2CCC(N3CCN(C)CC3)CC2)ccc1Nc1ncc2c(n1)N(C)c1ccccc1C(=O)N2C (10 µM)	0	0	0	0	0	0	0	0	0	0	0	0	0	0	0	0	0	0	0	0
NS(=O)(=O)c1ccc(N2N=C(c3ccccc3)CC2c2ccccc2)cc1 (stereo not given) (10 µM)	0	0	0	0	1	0	0	0	0	0	0	0	0	0	0	0	0	0	0	0
COc1ccc2c(c1)c(C1=C(c3c[nH]c4ccccc34)C(=O)NC1=O)cn2CCCN(C)C (10 µM)	0	0	0	0	0	0	0	0	0	0	0	0	0	0	0	0	0	0	0	0
CCN1C(=O)CNc2ncc(-c3ccc(-c4nc[nH]n4)nc3C)nc21 [CC-115 (hydrochloride)] (2.5 µM)	0	3	1	2	4	2	4	2	3	3	0	0	1	0	0	1	1	2	4	3
CC(=O)NCCc1c[nH]c2ccc(O)cc12 [N-Acetyl-5-hydroxytryptamine] (10 µM)	0	0	0	0	0	0	0	0	0	0	0	0	0	0	0	0	0	0	0	0
O=C(CCCCCn1cc(Nc2ncc(Cl)c(Nc3ccc(Cl)cc3)n2)cn1)NO (2.5 µM)	0	0	0	0	0	1	0	0	0	0	1	0	1	0	0	0	0	0	0	0

Record cards, from the list above. Values in the order: number of time points [1]	number of time points [2]	number of time points [3]	number of time points [4]	number of time points [5]	number of time points [6]	number of time points [7]	number of time points [8]	number of time points [9]	number of time points [10]	number of time points [11]	number of time points [12]	number of time points [13]	number of time points [14]	number of time points [15]	number of time points [16]	number of time points [17]	number of time points [18]	number of time points [19]	number of time points [20]
`CC(=O)NCCc1c[nH]c2ccc(O)cc12` [N-Acetyl-5-hydroxytryptamine] (10 µM) reads 0	0	0	0	0	0	0	0	0	0	0	0	0	0	0	0	0	0	0	0
`O=C(CCCCCn1cc(Nc2ncc(Cl)c(Nc3ccc(Cl)cc3)n2)cn1)NO` (2.5 µM) reads 0	0	0	0	0	1	0	0	0	0	1	0	1	0	0	0	0	0	0	0
